# PubChem BioAssay AID2417 (National Center for Advancing Translational Sciences (NCATS), 2010)
# In all, about 140,000 compounds went through this assay and about 4,300 (3.1%) were called active. The inconclusive results got no clear call from the source; some entries with a clear call stand among them for comparison.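 How the source made its calls: active means readout at or below -70, meaning at least 70% loss of cells showing the perinucleolar compartment, a nuclear body marking cancer cells; inconclusive means readout between -30 and a set limit; inactive means the rest.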
# Assay: High Content Assay for Compounds that inhibit the Assembly of the Perinucleolar Compartment;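 further: plate controls were DMSO wells for no effect and camptothecin positive control wells for full effect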
# Details: PC3M PTB-GFP, PNC prevalence imaging, 16 h; at 10 µM; hits give low values
# How it was run: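 Read-out is percentage of cells bearing a perinucleolar compartment, from automated 20x imaging of fixed, Hoechst-stained PC3M PTB-GFP cells. Cells were seeded 4 h, then exposed 16 h to compound (23 nl of library stock) in duplicate plates.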
row,Compound,"activity change (PNC), negative = inhibition"
1,Cc1cc(C)n(CCC(=O)N/N=C/c2ccc(O)cc2)n1,inconclusive: -32.2%
2,COc1ccc(C(C(=O)NC(C)(C)C)N(CC2CCCO2)C(=O)CCC(=O)Nc2cc(C)on2)cc1 (centres undefined),inconclusive: -30.6%
3,Cc1ccc2nc(C3CCCN(C(=S)Nc4cccc(C)c4C)C3)[nH]c2c1 (centres undefined),inconclusive: -32.8%
4,CC(CNC(=O)C1CCCCC1)NC(=O)C1CCCCC1 (centres undefined),inconclusive: -34.9%
5,CCCCOc1ccc(/C=C/C(=O)Nc2ccc([N+](=O)[O-])cc2C)cc1,inconclusive: -46.4%
6,C=CCNC(=O)c1cc2c(=O)n3cc(C)ccc3nc2nc1NCC1CCCO1 (centres undefined),inconclusive: -42%
7,CCN(CC)C(=O)N1CCC(NC(=O)c2ccc(C(C)(C)C)cc2)CC1,inconclusive: -32%
8,Cc1oc(-c2cccc(Cl)c2)nc1CN1CCC(C(=O)NCCCN2CCCC2=O)CC1,inactive: 2.89%
9,CC(C)C(CCN1C(=O)c2ccccc2C1=O)c1ccco1 (centres undefined),inactive: 44.8%
10,CC(=O)Nc1ccc(S(=O)(=O)N2CCN(CC(=O)NC3CCCC3)CC2)cc1,inconclusive: -30.5%
11,C=CCNc1nc2c(c(=O)[nH]c(=O)n2C)n1CCCCC,inconclusive: -76.2%
12,CCc1cccc(C)c1NC(=O)C1C2CCC(O2)C1C(=O)O (centres undefined),inconclusive: -43%
13,Cc1ccc(NC(=O)c2ccc(S(=O)(=O)C(F)F)cc2)c(C)c1,inconclusive: -73.9%
14,COc1ccccc1NC(=O)c1c(NC(=O)c2ccco2)sc2c1CCC2,inconclusive: -30.8%
15,COc1ccc(NC(=O)C2CCN(C(=O)NC3CCCCC3)CC2)c(OC)c1,inconclusive: -42.2%
16,COc1ccc([N+](=O)[O-])cc1NC(=O)CSc1nccc(C)n1,inconclusive: -49.1%
17,COc1ccc(C(=O)C(CN2CCOCC2)c2ccccc2)cc1 (centres undefined),inactive: 18.5%
18,CCc1cccc(CC)c1NC(=O)Cn1c(-c2ccccc2Cl)nc2ccccc21,inconclusive: -54.4%
19,CN1CN(C)c2cccc3cccc1c23,inconclusive: -35.1%
20,CCCCCN(C(=O)NC(=O)Nc1ccccc1C)S(=O)(=O)c1ccccc1,inactive: -3.13%
21,O=C(CN(Cc1ccco1)C(=O)CNS(=O)(=O)c1ccc(F)cc1)NCc1ccc(F)cc1,inconclusive: -51.1%
22,Cc1cc(Nc2ccccc2F)n2ncnc2n1,inconclusive: -64.7%
23,CCOC(=O)c1cc(C)n(CCc2ccccc2)c1C,inactive: -26.3%

row,Compound,"activity change (PNC), negative = inhibition"
1,O=C(COC(=O)C1c2ccccc2Oc2ccccc21)NC1CCS(=O)(=O)C1 (centres undefined),inconclusive: -32.7%
2,CC(=O)C1=C(C)Nc2ncnn2C1c1ccc(Cl)cc1Cl (centres undefined),inactive: 15.8%
3,CCN(Cc1ccccc1)c1ccc(/C=N/NS(=O)(=O)c2ccc(C)c([N+](=O)[O-])c2)cc1,inconclusive: -41.6%
4,Cc1ccc2nc(Nc3nc(CSc4nc5ccccc5s4)cc(=O)[nH]3)nc(C)c2c1,inconclusive: -32.7%
5,CCOC(=O)C1CCN(c2c([N+](=O)[O-])c(C(Cl)Cl)nn2-c2ccccc2)CC1,inconclusive: -56.7%
6,O=c1c2c(nc3nc(CCc4ccccc4)[nH]n13)CCC2,inconclusive: -44.1%
7,CCOC(=O)CC(=O)CSc1ccc2nnc(-c3ccc(C)cc3)n2n1,inactive: -13.9%
8,O=C(CSc1nnc(Cn2c(=O)sc3ccccc32)n1-c1ccccc1)NCc1ccco1,inconclusive: -45.4%
9,O=C(c1ccc(=O)[nH]c1)N(Cc1ccco1)C1(C(=O)NC2CCCCC2)CCCCC1,inconclusive: -74.1%
10,CC(C)CN(C#N)c1nc(N2CCOCC2)nc(N2CCOCC2)n1,inconclusive: -53.2%
11,COC(=O)CC1=NN(c2ccc(OC)cc2)C(=O)/C1=C\c1ccc(Cl)cc1,inconclusive: -58.8%
12,COC(=O)c1cn(NC(=O)CCC2CCCC2)c(=O)c2ccccc12,inconclusive: -45.1%
13,CC1=CC(=O)OC1Cc1ccncc1 (centres undefined),inconclusive: -42.5%
14,Cc1ccc(CNC(=O)CCCNC(=O)c2ccc(Cl)cc2)n1C,inconclusive: -39.4%
15,C/C(Nc1cccc(F)c1)=C(/C#N)C(N)=O,inconclusive: -60.3%
16,Cc1ccc(NC(=O)CCCCCCCCCCC2COCCO2)c(C)c1 (centres undefined),inactive: -4.05%
17,COc1ccc2[nH]c(=O)c(CN(C)C(=O)c3ccncc3)cc2c1,inconclusive: -44.4%
18,O=C(c1ccccc1)c1coc2ccc(O)c(CN3CCOCC3)c12,inactive: -28.8%
19,CC1CCN(C(=O)Cc2nn(C)c(=O)c3ccccc23)CC1,inconclusive: -73.9%
20,Nc1cc(=O)[nH]c(SCc2nc3ccccc3n2Cc2ccccc2)n1,inactive: 1.28%
21,Cc1ccc(-c2nnn(C(C)C(=O)N3c4ccccc4CCc4ccccc43)n2)cc1 (centres undefined),inactive: -27.5%
22,Cc1ccc(C2C(C(=O)c3cccs3)=C(O)C(=O)N2CCN2CCOCC2)o1 (centres undefined),inconclusive: -64.4%
23,Cc1ccc(CCC(=O)Nc2ncc(Cc3cccc(Cl)c3Cl)s2)o1,inconclusive: -60.3%

row,Compound,"activity change (PNC), negative = inhibition"
1,COCCN1CN(S(=O)(=O)c2ccc(Cl)cc2)c2nc3ccccc3nc21,inconclusive: -32.5%
2,COc1cccc(OC)c1NC(=O)CN1CCC(NC(=O)c2cccc(F)c2)CC1,inconclusive: -72.2%
3,COc1cccc(/C=N/NC(=O)CNC(=O)c2ccc3c(c2)OCCO3)c1O,inactive: -4.43%
4,Cc1nc2ccc(S(=O)(=O)NC(C(=O)NCc3cccs3)C(C)C)cc2s1 (centres undefined),inconclusive: -31.6%
5,CCCC1=C(C(=O)OCC)C(c2ccccc2OCC)NC(=O)N1C (centres undefined),inactive: 18.8%
6,COc1cc(C(=O)NCC(C)C)c([N+](=O)[O-])cc1OC,inconclusive: -32.2%
7,Cc1nn(-c2ccccc2)cc1/C=N/NS(=O)(=O)c1ccccc1,inconclusive: -74.6%
8,COc1cc(OC)cc(C(=O)N2CCC(N3CCN(c4ccccc4)CC3)CC2)c1,inconclusive: -68.3%
9,CC(=O)N1CCc2c(sc(NC(=O)C3CC3)c2-c2nc3ccccc3s2)C1,inconclusive: -33.3%
10,O=C(Nc1ccc2nc(-c3ccc(Br)o3)[nH]c2c1)c1ccco1,inactive: -21.9%
11,Cc1cc(OCCN2CCCC2)ccc1[N+](=O)[O-],inactive: -24.6%
12,COc1cc(NC(=S)N2CCN(C(=O)c3ccco3)CC2)c(OC)cc1Cl,inactive: -21.6%
13,COC(=O)c1nc(-c2ccccc2)n[nH]1,inconclusive: -35.2%
14,CCc1ccc(C(=O)/C=C/NCc2ccc(F)cc2)cc1,inconclusive: -50.4%
15,CCN(CC)S(=O)(=O)c1ccc(NC2c3ccccc3C(=O)N2c2ccc(C)cn2)cc1 (centres undefined),inactive: 8.33%
16,CC(=O)NCCn1c(C)cc2ccccc21,inconclusive: -37.5%
17,Cc1cccc(CSC(=N)N)c1,active: -115%
18,O=C(CSc1ncn[nH]1)Nc1c(Br)cc([N+](=O)[O-])cc1Br,inconclusive: -41.9%
19,CCn1c2ccccc2c2nnc(SCC(=O)NCCOC)nc21,inactive: 15.5%
20,C/C(=N\NC(=O)c1cc(-c2cccnc2)nc2ccccc12)c1ccccc1O,inactive: 36.7%
21,O=C(NCCc1ccccc1)C1CCN(S(=O)(=O)c2cccc3nsnc23)CC1,inconclusive: -37.1%
22,C=CCN1CCN(C(c2cc(OC)ccc2OC)c2nnnn2CC2CCCO2)CC1 (centres undefined),inconclusive: -31.3%
23,CCCCOc1ccc(OCCNS(=O)(=O)N(C)C)cc1,inconclusive: -42.4%

row,Compound,"activity change (PNC), negative = inhibition"
1,CC1CCCCN1C(=O)Cc1ccc(Cl)cc1 (centres undefined),inactive: 9.78%
2,COc1ccc(-c2ccc(SCC(=O)N3c4ccccc4CC3C)nn2)cc1OC (centres undefined),inconclusive: -48.6%
3,C/C(=N/OCO/N=C(/C)c1ccc(F)cc1)c1ccc(F)cc1,active: -104%
4,COCCN=c1scc(-c2cc(OC)ccc2OC)n1/N=C/c1c[nH]c2ccccc12,inactive: 32.2%
5,CCOc1ccc(NC(=O)CN(c2cc(C)cc(C)c2)S(=O)(=O)c2c(C)noc2C)cc1,inconclusive: -32%
6,COc1cccc(NC(=O)c2ccccc2-c2nc(-c3ccc(F)cc3)no2)c1,inconclusive: -35.6%
7,COCC(=O)Nc1nc2n(n1)C(c1ccc(Cl)cc1)CC(c1ccc(OC)cc1)N2 (centres undefined),inconclusive: -33.9%
8,CC1=CC(c2ccccc2)n2nc(N3C(=O)CCC3=O)nc2N1 (centres undefined),active: -94.1%
9,CCC1CCCCN1C(=O)CSc1nnc(-c2ccc(Cl)cc2)o1 (centres undefined),inactive: -29.1%
10,CC(Oc1ccccc1F)C(=O)Nc1ccc2ccccc2c1 (centres undefined),active: -86.6%
11,CC(=O)Oc1ccc2c(=O)c(Oc3ccccc3)coc2c1OC(C)=O,inactive: 36.1%
12,N#CCCn1cc(/C=N/O)c(-c2ccc(F)cc2)n1,inactive: 8.64%
13,O=C(O)CSc1ccc2ccccc2n1,inconclusive: -78.5%
14,COCCn1c(SCC(=O)Nc2ccc(C)cc2C)nc2c(oc3ccccc32)c1=O,active: -107%
15,COc1ccc2c(c1)c(=O)oc1cc(OCC(=O)NC3CC3)ccc12,inconclusive: -49%
16,CC1=C(C(N)=O)C(c2cccs2)n2nc(-c3cccc(C)c3)nc2N1 (centres undefined),inconclusive: -54.1%
17,CC(C)CC(CO)N1CCN(C(=O)c2ccc(C(C)(C)C)cc2)CCC1=O (centres undefined),inconclusive: -41.1%
18,CC(C)(C)CC(C)(C)NC(=S)NC1CCN(Cc2ccccc2)CC1,inconclusive: -59.5%
19,O=C(NC1(C(F)(F)F)NC(=O)N(Cc2cccnc2)C1=O)c1ccncc1 (centres undefined),inconclusive: -58.3%
20,CCN(CC)S(=O)(=O)c1ccc(NC(=O)C2CCCN(C(=O)c3ccc(Cl)cc3)C2)cc1 (centres undefined),inactive: 43.2%

# Single entries from the results shown.
# activity change (PNC), negative = inhibition with COc1ccc(C(=O)C(CN2CCOCC2)c2ccccc2)cc1 (centres undefined) reads inactive: 18.5%
# activity change (PNC), negative = inhibition with O=C(O)CSc1ccc2ccccc2n1 reads inconclusive: -78.5%
# activity change (PNC), negative = inhibition with O=C(c1ccccc1)c1coc2ccc(O)c(CN3CCOCC3)c12 reads inactive: -28.8%
